Laboratory results taken from patent US20240043562A1 (ACADEMISCH ZIEKENHUIS LEIDEN H O D N LUMC, published 2024).
Results are given in words; binding and its absence hold for the method and conditions named. Some entries that bind do so weakly or less than the wild type.

T1: recombinant MuSK produced in E. coli (UniProt O15146)
T1 sequence (looked up): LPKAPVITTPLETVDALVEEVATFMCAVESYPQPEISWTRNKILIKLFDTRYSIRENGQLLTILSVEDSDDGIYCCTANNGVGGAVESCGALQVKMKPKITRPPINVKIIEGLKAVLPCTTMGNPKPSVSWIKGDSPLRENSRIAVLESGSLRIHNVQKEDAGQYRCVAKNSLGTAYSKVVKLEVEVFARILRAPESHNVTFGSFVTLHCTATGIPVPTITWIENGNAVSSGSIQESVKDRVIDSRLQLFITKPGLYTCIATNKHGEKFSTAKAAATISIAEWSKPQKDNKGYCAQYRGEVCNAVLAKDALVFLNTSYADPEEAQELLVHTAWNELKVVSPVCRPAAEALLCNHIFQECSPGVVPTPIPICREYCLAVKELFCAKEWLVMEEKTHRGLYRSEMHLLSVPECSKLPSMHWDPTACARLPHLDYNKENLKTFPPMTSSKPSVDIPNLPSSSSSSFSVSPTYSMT

T2: MuSK produced in yeast (UniProt O15146)
T2 sequence (looked up): T1 sequence (looked up)

T3: MuSK at the postsynaptic membrane of mouse neuromuscular junctions (levator auris longus muscle) (mouse) (UniProt Q61006)
T3 sequence (looked up): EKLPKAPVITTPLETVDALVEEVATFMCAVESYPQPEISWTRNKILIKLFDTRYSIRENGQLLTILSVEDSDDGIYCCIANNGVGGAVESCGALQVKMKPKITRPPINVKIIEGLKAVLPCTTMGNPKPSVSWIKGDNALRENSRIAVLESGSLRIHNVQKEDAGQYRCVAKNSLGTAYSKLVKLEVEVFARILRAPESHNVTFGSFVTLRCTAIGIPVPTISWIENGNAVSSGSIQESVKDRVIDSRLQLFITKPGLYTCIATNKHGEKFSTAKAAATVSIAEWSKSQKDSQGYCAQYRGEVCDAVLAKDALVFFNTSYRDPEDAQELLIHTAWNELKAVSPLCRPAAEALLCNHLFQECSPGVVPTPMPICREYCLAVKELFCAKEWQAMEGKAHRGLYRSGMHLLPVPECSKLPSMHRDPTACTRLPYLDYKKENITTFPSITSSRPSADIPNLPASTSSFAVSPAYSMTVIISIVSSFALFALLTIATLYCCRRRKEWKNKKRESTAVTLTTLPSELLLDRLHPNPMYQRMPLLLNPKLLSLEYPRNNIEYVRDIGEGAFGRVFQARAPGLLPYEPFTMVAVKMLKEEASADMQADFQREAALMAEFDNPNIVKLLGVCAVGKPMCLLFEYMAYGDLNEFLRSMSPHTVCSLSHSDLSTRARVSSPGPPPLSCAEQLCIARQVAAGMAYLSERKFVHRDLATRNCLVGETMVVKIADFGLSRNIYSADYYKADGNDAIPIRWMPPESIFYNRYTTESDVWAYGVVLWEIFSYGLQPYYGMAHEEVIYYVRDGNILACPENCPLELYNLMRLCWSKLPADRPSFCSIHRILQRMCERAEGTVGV

B1: 13-3D10 (antibody, IgG1, V domains shown)
VH: EDLLVESGGGLVKPGQSLTLSCAASGFDFSASTMAWVRQAPGKGLEWVASVSGDSHHIYYADSLKGRFTLSRDNARNSFFLEMNSLRAEDTAVYYCARERLLRLGVGFDSWGQGSLVAVSS
VL: DIHMTQSPSSLSSSVGDRVTMTCRASQRISGFVNWYQQKPGRAPTLLISAASTLQSGVPSRFSGSASGTDFTLTISGLQPEDSAIYYCQQSYSPLYTFGQGTKVEIK
B2: 13-4D3 (antibody, IgG3, V domains shown)
VH: EVQLMESGGGLVKPGGSLRLSCTASGFTFSSYTMTWVRQAPGKGLEWVSSISSGGHYIYYTDSLKGRFIISRDNAKNSVFLQMNNLRAEDTATYYCARERLLRLGVGFDFWGQGSLVTVSS
VL: DIQMTQSPSSLSASEGDRVTMTCRASQSISGYLNWYQQKPGKAPKLLIYAASTLQSGVPSRFSGSSSGTEFTLSISSLQPEDFATYYCQQSYSALYTFGQGTRVEIK
B3: 13-3B5 (antibody, V domains shown)
VH: QVQLVQSGAVVAKPGASVQVSCKTSGYTFTGQYLHWVRQAPGQGLEWIGWINPSSGVTKFAEKFEGRATMTRDTSITTAYIDLRSLRSDDTATYYCATLSLGVYYVGMVAWGQGTLVTVSS
VL: SYELTQPPSVSVSPGQTATITCSGDGLAQQHVYWFQQRPGQAPLLIIYKDIERPSGIPERFSGSSSGTTAMLTISGVQAEDEADYYCQSGDRTATSVLFGGGTKMTVL
B4: 14-2E9 (antibody, V domains shown)
VH: EVQLVESGGGLVQPGGSLRLSCAASGFTFSSYWMHWVRQVPGKGLVWVSRLNEDGSTTNYADSVKGRFTISRDNAKYTLYLQMNSLRFEDTAVYYCVSDLSGKDEHWGQGTLVTVSS
VL: DIVMTQSPLSLPVTPGEPASISCRSTQSLLHSNGYYWLDWYLQKPGQSPQLLVYLGFNRASGVPDRFSGSGSGTDFTLKISRVEAEDVGVYYCMQGLQTPYTFGQGTTLEIK
B5: 11-3F6 (antibody, V domains shown)
VH: EVQLVESGGGLVKPGGSLRLSCAASGFTFSSYTMDWVRQAPGKGLEWVSSIGSNGDYIYYADSVRGRFTISRDNAKNSLYLQMNSLRPDDTADYYCARGQLAVAGTHFDYWGRGSLVTVSS
VL: DIQMTQSPSSLSASVGDRVTISCRASQKVNKYVNWYQQTPGKAPRLLIYAASTLQSGVPSRFSGSGSGANFTLTISGLQPEDFAIYFCQQSYSPLCTFGQGTKLEIK
B6: 11-3D9 (antibody, IgG1, V domains shown)
VH: EVQLVESGGGLVKPGESLRLSCAASGFNFSTYTMHWVRQAPGKGLEWVSSISSRSAYKYYADSVKGRFTISRDIAKNSLYLQMNSLRAEDTAVYYCARDFFQLGPPRFDSWGQGTLVTVSS
VL: DIQMTQSPSSLSASIGDRVTISCRASQRISSFLNWYQQKPGKPPNLLIYGASNLQSGVPSRFSGSGSGTDFTLTITSLQPEDYAIYYCQQSYSPMYTFGQGTSLEIK
B7: recombinant 13-3B5 IgG1 (antibody, V domains shown)
VH: B3 VH
VL: B3 VL
B8: recombinant 11-3F6 IgG1 (antibody, V domains shown)
VH: B5 VH
VL: B5 VL

Each binder was assayed against T1, recombinant MuSK produced in E. coli (assay: MuSK ELISA of B cell culture medium (FIGS. 3 and 4)).

binding, binds:
B1, B2, B3, B4, B5, B6

Each binder was assayed against T1, recombinant MuSK produced in E. coli (assay: ELISA of single B cell culture medium on MuSK produced in E. coli).

binding, binds:
B1, B2, B3, B4, B5, B6

Each binder was assayed against T2, MuSK produced in yeast (assay: ELISA of B cell culture medium on yeast-produced MuSK).

binding, binds:
B5, B6

What follows are binders tested against T3, MuSK at the postsynaptic membrane of mouse neuromuscular junctions (levator auris longus muscle) (mouse) (assay: immunostaining of isolated mouse skeletal muscle).

binding, binds:
B7, B8
